This passage reports binding results from article PMC7302877.

Chains of the proteins cited; added tags and fusions are not shown.
UniProt Q13485: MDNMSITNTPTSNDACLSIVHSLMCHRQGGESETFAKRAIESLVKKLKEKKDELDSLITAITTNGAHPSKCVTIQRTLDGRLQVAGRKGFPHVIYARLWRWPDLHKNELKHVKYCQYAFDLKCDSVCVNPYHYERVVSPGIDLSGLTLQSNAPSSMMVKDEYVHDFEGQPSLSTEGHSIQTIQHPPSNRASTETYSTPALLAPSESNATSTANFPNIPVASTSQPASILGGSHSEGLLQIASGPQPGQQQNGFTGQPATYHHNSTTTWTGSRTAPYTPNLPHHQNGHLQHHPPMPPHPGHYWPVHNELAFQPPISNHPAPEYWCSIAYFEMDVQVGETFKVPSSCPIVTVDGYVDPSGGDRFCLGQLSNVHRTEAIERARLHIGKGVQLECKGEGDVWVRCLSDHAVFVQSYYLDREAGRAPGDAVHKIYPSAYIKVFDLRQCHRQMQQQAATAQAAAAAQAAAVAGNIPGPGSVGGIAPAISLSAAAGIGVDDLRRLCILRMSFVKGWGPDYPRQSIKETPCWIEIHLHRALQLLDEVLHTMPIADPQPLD
UniProt P84022: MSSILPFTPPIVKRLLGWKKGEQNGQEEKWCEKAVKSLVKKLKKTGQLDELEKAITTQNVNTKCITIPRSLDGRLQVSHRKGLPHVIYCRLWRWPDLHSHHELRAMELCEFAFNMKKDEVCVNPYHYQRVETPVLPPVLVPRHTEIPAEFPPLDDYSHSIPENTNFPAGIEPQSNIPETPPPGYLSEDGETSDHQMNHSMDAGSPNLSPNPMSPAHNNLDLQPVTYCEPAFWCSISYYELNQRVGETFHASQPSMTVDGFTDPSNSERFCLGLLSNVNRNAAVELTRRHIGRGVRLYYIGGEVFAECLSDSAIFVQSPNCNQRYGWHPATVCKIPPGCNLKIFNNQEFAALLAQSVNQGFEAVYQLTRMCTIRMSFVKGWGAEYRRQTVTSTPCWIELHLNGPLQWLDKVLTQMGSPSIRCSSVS

No constants are given. Whether binding was seen depends on the method and setting. Binding seen in cells or lysates may run through a third protein. Some entries that bind do so weakly or less than the wild type. For some of these results: Sequences can lack the tags named with a protein.

Assay [1] addresses endogenous SMAD4 (human (endogenous in SUM159)) (UniProt Q13485). As to the kind of experiment: proximity ligation; Duolink PLA with antibodies against the two endogenous proteins in fixed SUM159 cells; either antibody alone as negative control; pre-treatment with 20 μM SB-431542 or DMSO for 15 min, then 5 ng/mL TGFβ for 30 min; foci per nucleus.
Assay [2] deals with endogenous SMAD3 (human (endogenous in SUM159)) (UniProt P84022). The assay is described as above.
In assay [3] the target is T1, endogenous ZNF165 (human (endogenous in SUM159)) (UniProt P49910).
T1 sequence: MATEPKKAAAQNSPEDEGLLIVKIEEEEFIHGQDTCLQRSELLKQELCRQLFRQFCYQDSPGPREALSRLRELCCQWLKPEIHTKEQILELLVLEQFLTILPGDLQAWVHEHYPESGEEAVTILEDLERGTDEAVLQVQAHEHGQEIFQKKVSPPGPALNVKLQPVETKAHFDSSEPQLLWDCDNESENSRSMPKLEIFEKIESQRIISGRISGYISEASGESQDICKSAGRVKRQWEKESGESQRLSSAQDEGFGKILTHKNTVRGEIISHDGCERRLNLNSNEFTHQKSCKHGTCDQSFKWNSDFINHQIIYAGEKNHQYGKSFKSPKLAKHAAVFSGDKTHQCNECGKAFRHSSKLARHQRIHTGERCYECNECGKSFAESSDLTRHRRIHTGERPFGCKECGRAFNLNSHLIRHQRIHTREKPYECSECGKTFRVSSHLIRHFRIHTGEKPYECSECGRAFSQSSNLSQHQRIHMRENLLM
Description: co-IP; SUM159 nuclear lysates (RIPA buffer, sonication) immunoprecipitated overnight at 4°C with antibody against endogenous ZNF165 or IgG; immunoblot. Background: Immunoblotting shows a protein as a band on a membrane.

Another assay addresses T2, HA-TRIM27 (UniProt P14373).
T2 sequence: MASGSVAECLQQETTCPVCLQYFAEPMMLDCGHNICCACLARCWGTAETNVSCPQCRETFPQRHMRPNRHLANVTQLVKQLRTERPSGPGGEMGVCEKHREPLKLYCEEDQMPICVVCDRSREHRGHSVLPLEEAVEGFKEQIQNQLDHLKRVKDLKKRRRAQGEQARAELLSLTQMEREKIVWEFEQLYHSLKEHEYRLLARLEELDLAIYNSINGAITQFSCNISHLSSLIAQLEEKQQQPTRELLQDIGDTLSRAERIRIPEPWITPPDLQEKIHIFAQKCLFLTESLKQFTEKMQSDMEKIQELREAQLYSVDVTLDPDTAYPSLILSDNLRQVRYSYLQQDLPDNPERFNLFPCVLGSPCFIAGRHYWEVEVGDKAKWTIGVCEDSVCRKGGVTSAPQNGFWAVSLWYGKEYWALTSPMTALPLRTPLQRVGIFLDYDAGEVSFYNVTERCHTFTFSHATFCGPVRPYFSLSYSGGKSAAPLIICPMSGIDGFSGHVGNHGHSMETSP
Description: co-IP; co-expression in HEK293T for 48 h; lysis in non-denaturing buffer (50 mM HEPES pH 7.4, 150 mM NaCl, 1% Triton X-100, 0.5% sodium deoxycholate); immunoprecipitation with HA or V5 antibody at 4°C; three washes in the buffer and one with 500 mM NaCl; immunoblot.

A further assay concerns the target T3, ZNF446-V5 (UniProt Q9NWS9).
T3 sequence: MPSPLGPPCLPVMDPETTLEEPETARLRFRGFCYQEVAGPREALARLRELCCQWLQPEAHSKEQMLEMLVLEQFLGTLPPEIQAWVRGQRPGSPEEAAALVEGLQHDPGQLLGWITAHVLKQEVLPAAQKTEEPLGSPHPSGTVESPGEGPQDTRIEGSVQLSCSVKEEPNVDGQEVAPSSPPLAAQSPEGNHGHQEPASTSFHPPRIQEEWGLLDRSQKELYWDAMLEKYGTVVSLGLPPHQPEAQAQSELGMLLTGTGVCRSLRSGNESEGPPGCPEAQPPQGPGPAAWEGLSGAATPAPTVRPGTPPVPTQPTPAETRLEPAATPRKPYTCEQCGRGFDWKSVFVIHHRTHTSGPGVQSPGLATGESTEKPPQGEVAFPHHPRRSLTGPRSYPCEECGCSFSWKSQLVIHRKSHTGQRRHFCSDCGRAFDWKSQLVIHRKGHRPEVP
Described as above.

A further assay has as its target HA-SMAD3 (UniProt P84022). The assay is described as above.
The target in assay [4] is phosphorylated SMAD3 (Ser423/425) (human (endogenous in SUM159)) (UniProt P84022). Description: co-IP; ChIP followed by immunoblot: SUM159 cells stably expressing ZNF165-V5, cross-linked with 1% formaldehyde, sheared chromatin precipitated with antibody against phosphorylated SMAD3 (Ser423/425) or IgG.
The target in assay [5] is T4, endogenous TRIM27 (human (endogenous in SUM159)) (UniProt P14373).
T4 sequence: T2 sequence
Description: proximity ligation; Duolink PLA with V5 and TRIM27 antibodies in fixed SUM159 cells stably expressing ZNF165-V5; parental SUM159 cells as negative control; foci per nucleus.

B1: endogenous TRIM27 (protein, UniProt P14373-1 1-513)
chain: T2 sequence
For the molecule B1, the binding result in assay [1] and in assay [2] was “binds” throughout.

B2: endogenous ZNF446 (protein, UniProt Q9NWS9 1-450)
chain: T3 sequence
Consider B2, for which the binding result in assay [3], in assay [1] and in assay [2] was “binds” each time.

B3: ZNF446-V5 (protein, UniProt Q9NWS9 1-450)
chain: T3 sequence
On to B3, for which the binding result in the assay with HA-TRIM27 was “binds”.

B4: ZNF165-myc (protein, UniProt P49910 1-485)
chain: T1 sequence
Take B4: the binding entry with ZNF446-V5, in the assay with HA-SMAD3 and with HA-TRIM27 was “binds” throughout.

B5: ZNF165-V5 (protein, UniProt P49910 1-485)
chain: T1 sequence
In the case of B5, the binding result in assay [4] and in assay [5] was “binds” in each case.

B6: endogenous ZNF165 (protein, UniProt P49910 1-485)
chain: T1 sequence
For the molecule B6, the binding result in assay [1] and in assay [2] was “binds” in each case.
